Measured values as given in publication PMC4370569.
No constants are given. Whether binding was seen depends on the method and setting. Binding seen in cells or lysates may run through a third protein. Some binding calls cover weakened binding; strength is not graded here. Where a sequence is shown, tags or fusion partners need not be part of it.

Target: T1, Fft3-TAP (S. pombe) (UniProt O42861)
T1 sequence: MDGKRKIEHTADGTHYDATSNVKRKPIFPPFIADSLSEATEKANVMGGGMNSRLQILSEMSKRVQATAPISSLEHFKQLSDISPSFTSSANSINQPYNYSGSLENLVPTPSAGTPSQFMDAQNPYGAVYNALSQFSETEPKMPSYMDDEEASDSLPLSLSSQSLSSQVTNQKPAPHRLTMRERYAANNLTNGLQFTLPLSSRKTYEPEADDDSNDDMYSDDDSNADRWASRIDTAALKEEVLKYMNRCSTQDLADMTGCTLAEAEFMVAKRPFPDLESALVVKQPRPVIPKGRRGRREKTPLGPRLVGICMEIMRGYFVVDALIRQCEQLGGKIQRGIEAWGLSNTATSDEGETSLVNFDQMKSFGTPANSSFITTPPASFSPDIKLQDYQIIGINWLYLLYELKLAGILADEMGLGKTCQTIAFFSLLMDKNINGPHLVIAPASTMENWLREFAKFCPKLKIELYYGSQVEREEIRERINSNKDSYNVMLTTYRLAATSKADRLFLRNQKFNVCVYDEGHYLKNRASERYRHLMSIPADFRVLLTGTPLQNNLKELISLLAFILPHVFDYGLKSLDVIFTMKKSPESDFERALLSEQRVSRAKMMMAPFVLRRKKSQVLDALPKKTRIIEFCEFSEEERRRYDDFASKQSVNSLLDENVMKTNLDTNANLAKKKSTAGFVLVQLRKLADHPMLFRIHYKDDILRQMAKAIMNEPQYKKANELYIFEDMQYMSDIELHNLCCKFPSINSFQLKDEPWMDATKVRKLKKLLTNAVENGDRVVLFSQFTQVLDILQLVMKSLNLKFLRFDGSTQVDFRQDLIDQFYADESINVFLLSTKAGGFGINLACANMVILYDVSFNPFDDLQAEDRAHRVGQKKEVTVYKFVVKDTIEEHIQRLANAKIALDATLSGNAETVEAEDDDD
Assay: co-IP; lysate of S. pombe strains (double-tagged Sfc4-Myc Fft3-TAP and single-tagged controls); lysis buffer 20 mM Tris pH7.5, 150mM NaCl, 3% glycerol, 0.05% Igepal, 0.5mM EDTA, 0.5 mM DTT; IgG beads 40 min at 4°C; five washes; blot with anti-myc, then anti-TAP

B1: Sfc4-Myc (protein, UniProt O74458 1-1006)
chain: MIQNGGNSYVDSNMNETQNDTTDNFDAEMQDLNGYISEIVDEARNVSEVDAKFLGDTSALQAEGLWSDEESDYEGSDDESNFSKTASRTEDDIANEEWEENLKAVAGFRKVRKGHKGRGRVSRADMLPSVEVQQMLSLANHLFAQEGNFDEAQKLAEEIVRIDNNVIAAWKMLGECHRQRGNGRVNIEKCLIAWMAAAHLKPKDHELWFTCAKLSESLEFWDQADYCYNRAVSAKPPNKSELKKYIWNRSVLNKEHGSLKKAAEGFKFLLQSSPYNASILKNLAEIYIKIHAPREILKQFEIAWKYFYQYPAPPIGNDIFDLPTLNLYAELLLLDHQWSNLIRLINRGVRWFRGRKSESFWDEFDDDREWDVDERRREFPNASEEHTNKEAYLLPHLFRTKLGIARLKTGELPEAELHFSVIKNLPPDYAWGMLYDIAKAYMDIERLDLALEYFVLICNHEPAQNIGLWYNMGVCYLELKEYEHAQQCMEAILIVDNSNTNALIKLAEINELQDNRDAALEIVTNIFEQRRNINELEREQSQNEDHEKNVGSQLFVGNQKVPQDKWEKRARISRSKEEARQFTIWKTEETQRRFHKLDILRQSLKKEENVSESLNEWLAIASELIDEFVSIKAFFPSEKKARARAGLLTRRTRYASLNDQLTSMINRLNDSLTRTKYGDLDLDTILRTGYFRNVSIDAWYQLFVEFSLRLTKVGSVQQAYDVLTTAMGAILFDQDTIKRQNLRWCMLACSMYARDPQGALTPLRWVFTTFQFRQDTYRLFSAVLSQGYECSRAFVDSANQKFLLRLIKLMDQLMSNSLVSGAATLVKNDDGLATVPTSYDPVLVLLYGHIMARNRSWIPAINYYSRAFAINPDCPITNLSLGLAYLHRAMQRLSDNRHYQILQGFTFLYRYYDLRVNEGLGEKQEALYNLGKAYHFIGLEHYAVKYYEAVLGLSPMSQGDKMTSSESTVSTTYDFGFEAAYNLRLIYICSGNIKLAFQISSKYLIF
  binding: binds
